Taken from: PubChem BioAssay AID1259425 (University of Nebraska Medical Center, 2018)
Purpose: 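Compare each knockdown with KSR1 silencing using changes in marker transcripts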 (primary screen). Cells: HCT116 human colon cancer cells. Reagent: siRNA pool against human genes, 50 nM siRNA. Detection: 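After 50 nM siRNA pool, branched-DNA assay measures six marker transcripts per well, minus blank, normalised to the geometric mean of two housekeeping transcripts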. Reading the numbers: BNIP3L mRNA: higher = more BNIP3L transcript after knockdown.
In all, the deposit lists about 14,000 reagents; this is a random part of them. Further read-outs or replicates are left out here. Not given: the time to read-out.

ZNF414 (zinc finger protein 414) → BNIP3L mRNA, set 1 = 0.192
SSUH2 (ssu-2 homolog) → BNIP3L mRNA, set 1 = 0.132
NDUFS1 (NADH:ubiquinone oxidoreductase core subunit S1) → BNIP3L mRNA, set 1 = 0.115
BCLAF1 (BCL2 associated transcription factor 1) → BNIP3L mRNA, set 1 = 0.0343
SLC19A2 → BNIP3L mRNA, set 1 = 0.0938
ARHGAP24 (Rho GTPase activating protein 24) → BNIP3L mRNA, set 1 = 0.157
RNF10 (ring finger protein 10) → BNIP3L mRNA, set 1 = 0.176
DDX20 (DEAD-box helicase 20) → BNIP3L mRNA, set 1 = 0.112
SPOP (speckle type BTB/POZ protein) → BNIP3L mRNA, set 1 = 0.165
FCN2 (ficolin 2) → BNIP3L mRNA, set 1 = 0.0837
SLC16A6 → BNIP3L mRNA, set 1 = 0.105
ATAD5 (ATPase family AAA domain containing 5) → BNIP3L mRNA, set 1 = 0.0969
ODAD4 (outer dynein arm docking complex subunit 4) → BNIP3L mRNA, set 1 = 0.102
DDB1 (damage specific DNA binding protein 1) → BNIP3L mRNA, set 1 = 0.19
KIF14 (kinesin family member 14) → BNIP3L mRNA, set 1 = 0.0818
LRRC8C (leucine rich repeat containing 8 VRAC subunit C) → BNIP3L mRNA, set 1 = 0.125
ADAM10 (ADAM metallopeptidase domain 10) → BNIP3L mRNA, set 1 = 0.105
B3GALT2 (beta-1,3-galactosyltransferase 2) → BNIP3L mRNA, set 1 = 0.206
LTB (lymphotoxin beta) → BNIP3L mRNA, set 1 = 0.101
PTPRN (protein tyrosine phosphatase receptor type N) → BNIP3L mRNA, set 1 = 0.0622
PRKAR1B (protein kinase cAMP-dependent type I regulatory subunit beta) → BNIP3L mRNA, set 1 = 0.0668
YPEL3 (yippee like 3) → BNIP3L mRNA, set 1 = 0.166
NUDT22 (nudix hydrolase 22) → BNIP3L mRNA, set 1 = 0.142
HSPA1L (heat shock protein family A (Hsp70) member 1 like) → BNIP3L mRNA, set 1 = 0.267
AURKA (aurora kinase A) → BNIP3L mRNA, set 1 = 0.202
EIF2AK4 (eukaryotic translation initiation factor 2 alpha kinase 4) → BNIP3L mRNA, set 1 = 0.159
SAA1 (serum amyloid A1) → BNIP3L mRNA, set 1 = 0.0811
ADAM22 (ADAM metallopeptidase domain 22) → BNIP3L mRNA, set 1 = 0.0681

No new results follow: entries from further up.
ZNF414 (zinc finger protein 414) → BNIP3L mRNA, set 1 = 0.192
SSUH2 (ssu-2 homolog) → BNIP3L mRNA, set 1 = 0.132
